Reference: the supplement of paper PMC11006884
Only a part is listed here, and it is no random draw. Single values of this set are uncertain.

By UniProt entry, the sequences of proteins in these tests, tags left out. Where a name states a change or a piece, a line headed by the entry shows the natural chain unless it says otherwise.
UniProt Q9NP72: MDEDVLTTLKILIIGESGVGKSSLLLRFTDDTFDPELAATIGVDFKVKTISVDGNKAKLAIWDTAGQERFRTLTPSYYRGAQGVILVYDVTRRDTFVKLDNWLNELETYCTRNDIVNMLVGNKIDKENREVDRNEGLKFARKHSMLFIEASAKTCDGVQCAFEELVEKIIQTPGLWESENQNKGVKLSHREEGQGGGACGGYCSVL
UniProt Q9NR33: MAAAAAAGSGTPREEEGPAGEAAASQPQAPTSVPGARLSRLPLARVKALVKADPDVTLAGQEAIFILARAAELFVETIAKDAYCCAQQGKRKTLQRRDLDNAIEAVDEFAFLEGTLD
UniProt Q9NQX3: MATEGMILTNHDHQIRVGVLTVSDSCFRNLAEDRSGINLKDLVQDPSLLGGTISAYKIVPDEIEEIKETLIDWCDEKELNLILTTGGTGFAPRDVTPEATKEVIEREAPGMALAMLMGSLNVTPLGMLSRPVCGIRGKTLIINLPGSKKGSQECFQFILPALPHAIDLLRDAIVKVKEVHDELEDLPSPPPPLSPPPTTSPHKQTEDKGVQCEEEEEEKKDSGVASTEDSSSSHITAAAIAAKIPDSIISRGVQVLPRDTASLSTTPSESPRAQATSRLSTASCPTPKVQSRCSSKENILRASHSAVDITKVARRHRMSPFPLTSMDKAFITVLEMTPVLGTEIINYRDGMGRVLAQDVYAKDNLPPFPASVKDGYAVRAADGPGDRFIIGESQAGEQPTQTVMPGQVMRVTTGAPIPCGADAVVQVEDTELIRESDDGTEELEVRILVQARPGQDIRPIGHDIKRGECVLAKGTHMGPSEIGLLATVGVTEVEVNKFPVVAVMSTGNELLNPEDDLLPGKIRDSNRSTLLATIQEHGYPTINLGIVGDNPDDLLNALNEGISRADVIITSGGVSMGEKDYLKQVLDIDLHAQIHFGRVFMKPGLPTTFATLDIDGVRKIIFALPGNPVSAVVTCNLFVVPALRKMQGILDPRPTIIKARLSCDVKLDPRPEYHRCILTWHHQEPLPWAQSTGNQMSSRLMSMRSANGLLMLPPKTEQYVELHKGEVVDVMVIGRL
UniProt Q9HC98: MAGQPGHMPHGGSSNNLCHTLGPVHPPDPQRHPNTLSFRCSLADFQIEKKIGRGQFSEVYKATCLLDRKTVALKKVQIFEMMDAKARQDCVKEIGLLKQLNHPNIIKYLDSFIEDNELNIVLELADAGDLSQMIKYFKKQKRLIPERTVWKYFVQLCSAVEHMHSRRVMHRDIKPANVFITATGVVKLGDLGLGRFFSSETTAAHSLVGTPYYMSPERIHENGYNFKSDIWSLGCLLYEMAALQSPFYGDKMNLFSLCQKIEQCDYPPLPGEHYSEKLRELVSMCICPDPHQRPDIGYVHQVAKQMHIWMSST
UniProt Q9NQ29: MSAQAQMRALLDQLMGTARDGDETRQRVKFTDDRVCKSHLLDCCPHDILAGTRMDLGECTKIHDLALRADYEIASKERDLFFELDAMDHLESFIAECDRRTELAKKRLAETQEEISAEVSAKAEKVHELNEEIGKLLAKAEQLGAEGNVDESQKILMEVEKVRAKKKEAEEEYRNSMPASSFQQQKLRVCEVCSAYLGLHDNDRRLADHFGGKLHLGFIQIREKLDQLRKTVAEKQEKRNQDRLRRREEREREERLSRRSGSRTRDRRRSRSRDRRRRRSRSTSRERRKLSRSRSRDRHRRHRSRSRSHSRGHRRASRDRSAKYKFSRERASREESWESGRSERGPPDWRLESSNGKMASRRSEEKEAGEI
UniProt Q9NR09, whole entry, looked up: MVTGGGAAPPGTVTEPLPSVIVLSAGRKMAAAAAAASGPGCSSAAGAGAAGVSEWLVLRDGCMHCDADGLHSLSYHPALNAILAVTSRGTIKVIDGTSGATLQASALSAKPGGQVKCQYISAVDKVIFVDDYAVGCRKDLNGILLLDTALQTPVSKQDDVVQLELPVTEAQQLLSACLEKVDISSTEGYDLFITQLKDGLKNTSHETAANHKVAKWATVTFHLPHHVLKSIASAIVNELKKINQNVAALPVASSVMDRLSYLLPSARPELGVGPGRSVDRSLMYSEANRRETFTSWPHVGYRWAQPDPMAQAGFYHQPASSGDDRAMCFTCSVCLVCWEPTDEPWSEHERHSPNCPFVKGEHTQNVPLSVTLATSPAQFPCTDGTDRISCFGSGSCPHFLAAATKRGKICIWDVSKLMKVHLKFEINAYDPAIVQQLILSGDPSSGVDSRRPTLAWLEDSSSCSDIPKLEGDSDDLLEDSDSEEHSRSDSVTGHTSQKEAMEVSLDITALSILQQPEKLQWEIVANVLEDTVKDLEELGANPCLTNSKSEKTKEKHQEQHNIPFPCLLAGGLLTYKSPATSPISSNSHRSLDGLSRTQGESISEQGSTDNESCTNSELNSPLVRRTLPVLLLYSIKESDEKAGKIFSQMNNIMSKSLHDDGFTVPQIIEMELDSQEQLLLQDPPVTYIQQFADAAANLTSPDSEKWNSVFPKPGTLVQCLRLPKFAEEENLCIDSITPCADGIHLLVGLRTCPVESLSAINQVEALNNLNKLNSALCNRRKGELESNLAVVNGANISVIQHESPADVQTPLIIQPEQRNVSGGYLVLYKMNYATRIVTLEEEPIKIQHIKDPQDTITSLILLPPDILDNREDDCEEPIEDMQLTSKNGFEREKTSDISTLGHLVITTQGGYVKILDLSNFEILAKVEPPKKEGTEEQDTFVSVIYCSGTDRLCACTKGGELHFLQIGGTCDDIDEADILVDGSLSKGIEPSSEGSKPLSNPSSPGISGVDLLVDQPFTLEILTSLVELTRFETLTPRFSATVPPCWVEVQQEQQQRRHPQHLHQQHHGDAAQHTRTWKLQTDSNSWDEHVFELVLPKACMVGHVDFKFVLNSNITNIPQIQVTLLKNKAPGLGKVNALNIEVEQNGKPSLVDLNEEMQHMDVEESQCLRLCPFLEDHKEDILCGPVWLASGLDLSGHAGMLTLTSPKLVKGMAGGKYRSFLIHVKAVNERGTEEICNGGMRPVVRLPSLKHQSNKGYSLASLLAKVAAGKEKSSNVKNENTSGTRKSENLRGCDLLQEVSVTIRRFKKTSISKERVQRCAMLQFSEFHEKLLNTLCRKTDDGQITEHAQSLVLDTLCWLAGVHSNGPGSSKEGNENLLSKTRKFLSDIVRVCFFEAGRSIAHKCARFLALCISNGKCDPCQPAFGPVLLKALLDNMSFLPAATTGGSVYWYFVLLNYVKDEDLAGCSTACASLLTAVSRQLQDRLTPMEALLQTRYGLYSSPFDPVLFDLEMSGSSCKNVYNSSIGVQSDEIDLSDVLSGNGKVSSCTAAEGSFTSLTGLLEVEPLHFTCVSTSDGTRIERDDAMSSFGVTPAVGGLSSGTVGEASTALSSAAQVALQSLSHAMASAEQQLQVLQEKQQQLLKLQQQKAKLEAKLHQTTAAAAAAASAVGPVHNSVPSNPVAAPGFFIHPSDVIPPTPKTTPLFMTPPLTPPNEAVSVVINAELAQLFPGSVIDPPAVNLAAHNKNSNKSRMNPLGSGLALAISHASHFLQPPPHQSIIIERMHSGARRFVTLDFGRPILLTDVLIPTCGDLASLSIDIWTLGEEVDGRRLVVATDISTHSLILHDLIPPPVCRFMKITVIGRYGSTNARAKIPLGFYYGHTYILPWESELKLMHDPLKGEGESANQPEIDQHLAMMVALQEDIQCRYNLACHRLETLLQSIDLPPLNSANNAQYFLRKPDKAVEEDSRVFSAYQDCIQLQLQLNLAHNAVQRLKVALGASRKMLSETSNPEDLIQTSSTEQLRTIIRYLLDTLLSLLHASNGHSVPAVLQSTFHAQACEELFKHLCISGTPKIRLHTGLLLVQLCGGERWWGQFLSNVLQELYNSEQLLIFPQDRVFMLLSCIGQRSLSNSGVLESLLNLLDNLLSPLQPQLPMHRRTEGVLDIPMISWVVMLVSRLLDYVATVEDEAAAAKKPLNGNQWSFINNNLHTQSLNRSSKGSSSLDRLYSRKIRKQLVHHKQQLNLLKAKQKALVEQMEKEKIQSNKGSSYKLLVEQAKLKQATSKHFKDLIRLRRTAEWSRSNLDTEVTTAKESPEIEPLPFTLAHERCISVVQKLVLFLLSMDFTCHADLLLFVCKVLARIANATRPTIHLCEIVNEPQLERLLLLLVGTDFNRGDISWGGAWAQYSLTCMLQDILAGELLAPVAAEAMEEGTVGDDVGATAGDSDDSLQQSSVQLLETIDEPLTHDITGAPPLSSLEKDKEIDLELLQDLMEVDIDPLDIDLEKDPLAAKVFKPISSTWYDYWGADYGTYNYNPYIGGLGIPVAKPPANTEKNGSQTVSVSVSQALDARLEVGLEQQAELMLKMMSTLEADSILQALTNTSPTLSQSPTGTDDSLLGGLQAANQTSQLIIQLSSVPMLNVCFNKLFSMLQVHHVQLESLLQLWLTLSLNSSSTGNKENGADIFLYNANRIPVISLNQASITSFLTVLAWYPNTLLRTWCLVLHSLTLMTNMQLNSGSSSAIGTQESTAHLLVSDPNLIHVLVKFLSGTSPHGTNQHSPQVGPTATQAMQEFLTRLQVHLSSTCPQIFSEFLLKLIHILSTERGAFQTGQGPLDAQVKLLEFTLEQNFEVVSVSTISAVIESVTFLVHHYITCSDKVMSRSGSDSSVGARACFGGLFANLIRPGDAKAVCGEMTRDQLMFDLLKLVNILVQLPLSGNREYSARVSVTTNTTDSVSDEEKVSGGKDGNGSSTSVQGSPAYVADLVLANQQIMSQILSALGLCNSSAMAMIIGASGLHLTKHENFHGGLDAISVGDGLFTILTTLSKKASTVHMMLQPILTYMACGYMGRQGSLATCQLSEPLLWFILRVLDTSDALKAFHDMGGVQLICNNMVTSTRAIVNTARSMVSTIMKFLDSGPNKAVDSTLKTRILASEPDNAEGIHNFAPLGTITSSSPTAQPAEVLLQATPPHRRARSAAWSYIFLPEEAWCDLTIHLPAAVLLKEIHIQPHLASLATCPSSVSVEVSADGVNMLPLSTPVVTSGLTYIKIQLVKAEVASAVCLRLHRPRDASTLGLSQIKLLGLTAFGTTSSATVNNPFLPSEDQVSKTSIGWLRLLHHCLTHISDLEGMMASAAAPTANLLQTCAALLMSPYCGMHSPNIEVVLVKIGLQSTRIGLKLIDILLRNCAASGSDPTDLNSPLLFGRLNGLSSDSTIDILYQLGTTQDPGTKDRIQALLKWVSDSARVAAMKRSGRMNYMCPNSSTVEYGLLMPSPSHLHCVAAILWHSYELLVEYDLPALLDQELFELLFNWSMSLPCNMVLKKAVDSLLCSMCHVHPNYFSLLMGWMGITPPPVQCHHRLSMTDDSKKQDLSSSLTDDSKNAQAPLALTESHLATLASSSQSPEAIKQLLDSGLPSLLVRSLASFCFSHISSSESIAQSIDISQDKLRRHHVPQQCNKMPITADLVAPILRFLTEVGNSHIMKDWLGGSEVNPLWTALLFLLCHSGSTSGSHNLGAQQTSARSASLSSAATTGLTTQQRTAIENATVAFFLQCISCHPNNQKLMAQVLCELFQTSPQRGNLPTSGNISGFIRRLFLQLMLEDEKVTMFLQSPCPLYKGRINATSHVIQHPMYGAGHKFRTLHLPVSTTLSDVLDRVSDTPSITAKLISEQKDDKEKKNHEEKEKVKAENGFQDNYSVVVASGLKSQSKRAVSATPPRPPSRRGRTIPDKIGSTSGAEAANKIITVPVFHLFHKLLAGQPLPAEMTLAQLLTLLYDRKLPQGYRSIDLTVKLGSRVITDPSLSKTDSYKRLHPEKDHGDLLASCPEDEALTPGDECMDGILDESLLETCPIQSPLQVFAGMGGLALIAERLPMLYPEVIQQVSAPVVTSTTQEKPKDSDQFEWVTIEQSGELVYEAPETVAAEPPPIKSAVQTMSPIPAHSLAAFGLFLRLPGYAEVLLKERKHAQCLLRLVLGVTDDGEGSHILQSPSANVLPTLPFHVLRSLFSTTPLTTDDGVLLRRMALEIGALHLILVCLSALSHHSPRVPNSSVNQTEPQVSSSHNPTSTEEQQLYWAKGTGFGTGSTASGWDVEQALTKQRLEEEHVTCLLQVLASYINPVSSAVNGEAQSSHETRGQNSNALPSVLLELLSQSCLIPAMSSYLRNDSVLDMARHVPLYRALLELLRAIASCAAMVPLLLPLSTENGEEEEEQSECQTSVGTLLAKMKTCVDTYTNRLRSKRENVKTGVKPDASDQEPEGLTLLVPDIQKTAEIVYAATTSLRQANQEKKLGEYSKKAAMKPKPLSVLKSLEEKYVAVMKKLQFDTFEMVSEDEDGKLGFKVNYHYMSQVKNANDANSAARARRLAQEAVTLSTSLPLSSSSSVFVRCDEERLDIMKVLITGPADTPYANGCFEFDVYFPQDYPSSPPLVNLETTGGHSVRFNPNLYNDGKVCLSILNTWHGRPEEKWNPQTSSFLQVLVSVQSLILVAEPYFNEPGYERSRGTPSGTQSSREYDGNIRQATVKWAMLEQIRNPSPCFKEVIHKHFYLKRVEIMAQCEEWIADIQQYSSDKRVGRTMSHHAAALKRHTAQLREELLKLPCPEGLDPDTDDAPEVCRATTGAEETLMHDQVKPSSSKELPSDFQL

compound: COC(=O)/C=C/c1ccccc1 [methyl cinnamate]; assay: log2 ratio of iodoacetamide-alkyne labeling of the cysteine site, DMSO over compound (competition); higher = stronger covalent engagement of the cysteine by the compound, active = 1 or more; conditions: 500 µM; treatment time 1 h; system: HEK293T cell lysate
Outline: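 Reporter intensities give each cysteine's log2 competition ratio as the mean of control channels over the mean of compound channels. The samples were HEK293T lysate (2 mg/mL) given vehicle or electrophile (500 µM, 1 h, ambient temperature), then iodoacetamide alkyne (1 h), followed by click coupling to sCIP-TMT reagents, pooling, trypsin digestion overnight at 37 °C, streptavidin enrichment, acid elution, Orbitrap Eclipse LC-MS/MS with FAIMS and FragPipe quantification. Duplicate channels and three replicates were run, and cysteines quantified in only one replicate were discarded.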

Target	log2 ratio of iodoacetamide-alkyne labeling
SARS2 C66 (UniProt Q9NP81)	inactive: -0.0105
UniProt Q9H8G2_C226	inactive: 0.241
DMAP1 C199 (UniProt Q9NPF5)	inactive: 0.282
RAB18 C160 (UniProt Q9NP72)	inactive: 0.305
RDH14 C97 (UniProt Q9HBH5)	inactive: 0.171
SFXN1 C190 (UniProt Q9H9B4)	inactive: 0.0791
POLE4 C84 (UniProt Q9NR33)	inactive: 0.0596
GPHN C284 (UniProt Q9NQX3)	inactive: 0.275
MED4 C162 (UniProt Q9NPJ6)	inactive: 0.23
MOV10 C16 (UniProt Q9HCE1)	inactive: 0.0569
XPO5 C10 (UniProt Q9HAV4)	inactive: -0.171
BCAS3 C836 (UniProt Q9H6U6)	inactive: -0.0114
EIF2B3 C64 (UniProt Q9NR50)	inactive: 0.238
NEK6 C40 (UniProt Q9HC98)	inactive: 0.154
UniProt Q9NRY4_C730	inactive: 0.425
LUC7L C97 (UniProt Q9NQ29)	inactive: -0.153
RMI1 C268 (UniProt Q9H9A7)	inactive: 0.285
C17orf75 C296 (UniProt Q9HAS0)	inactive: 0.59
CD320 C139 (UniProt Q9NPF0)	inactive: 0.373
UniProt Q9NR48_C747	inactive: 0.141
BIRC6 C1357 (UniProt Q9NR09)	inactive: 0.0137
ATG3 C50 (UniProt Q9NT62)	inactive: -0.0371

5 entries from above, with bars between the fields:
Target | log2 ratio of iodoacetamide-alkyne labeling
SARS2 C66 (UniProt Q9NP81) | inactive: -0.0105
UniProt Q9H8G2_C226 | inactive: 0.241
DMAP1 C199 (UniProt Q9NPF5) | inactive: 0.282
RAB18 C160 (UniProt Q9NP72) | inactive: 0.305
RDH14 C97 (UniProt Q9HBH5) | inactive: 0.171
